No constants are given. Whether binding was seen depends on the method and setting. Some binding calls cover weakened binding; strength is not graded here.
Target: human IL-27RA (WSX-1) (human) (UniProt Q6UWB1)
Assay: hybridoma from Harbour H2L2 mice immunised with human WSX-1 DNA; no binding data printed

The chains behind the UniProt entries cited, without tags or fusion partners. Where a name states a change or a piece, a line headed by the entry shows the natural chain unless it says otherwise.
UniProt Q6UWB1: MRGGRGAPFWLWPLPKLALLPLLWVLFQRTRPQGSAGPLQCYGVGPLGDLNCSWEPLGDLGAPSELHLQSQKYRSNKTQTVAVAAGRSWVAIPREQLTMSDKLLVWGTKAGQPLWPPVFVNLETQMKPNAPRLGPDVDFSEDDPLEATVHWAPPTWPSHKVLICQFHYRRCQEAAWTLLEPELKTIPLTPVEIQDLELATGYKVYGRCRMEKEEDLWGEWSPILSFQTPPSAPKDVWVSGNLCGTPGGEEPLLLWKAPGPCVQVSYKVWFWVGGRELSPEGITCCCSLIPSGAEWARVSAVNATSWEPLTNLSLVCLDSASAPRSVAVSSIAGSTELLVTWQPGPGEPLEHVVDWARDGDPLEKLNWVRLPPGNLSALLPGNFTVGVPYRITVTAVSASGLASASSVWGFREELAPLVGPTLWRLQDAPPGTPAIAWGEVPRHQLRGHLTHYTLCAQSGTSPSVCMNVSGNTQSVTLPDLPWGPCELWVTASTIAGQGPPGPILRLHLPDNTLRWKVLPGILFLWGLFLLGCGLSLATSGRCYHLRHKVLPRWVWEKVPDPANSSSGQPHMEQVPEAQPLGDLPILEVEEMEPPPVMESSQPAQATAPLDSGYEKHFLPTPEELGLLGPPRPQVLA

B1: 8B11 (antibody, IgG1, V domains shown)
VH: QVQLQQSGPGLVKPSQTLSLTCAISGYSVSSNNAAWNWIRQSPSRGLEWLGRTYYRSKWYNDYALSVKSRVTINPDTSKNQFSLHLNPVTPEDTALYFCARGLPMVPFDSWGQGTLVTVSS
VL: DIQMTQSPSTLSASVGDRVTITCRASQSISSWLAWYQQKPGKAPKLLIYKASSLESGVPSRFSGSGSGTEFTLTISSLQPDDFATYFCQQYDSFSMYTFGQGTKLEIK
- binding: binds
